From patent US20190376039A1, “CELLS WITH IMPROVED INWARD RECTIFIER CURRENT” (priority 2018, published 2019)
At least one compound was matched to its structure with a doubt left.

Legend:
Kir2.1/KCNJ2 = assay: Quantitative PCR of Kir2.1/KCNJ2 in hiPSC and hESC comprising inducible IK1; type: cell-based, human; conditions: doxycycline induction vs un-induced 0 dox control; 3 separate experiments
Kir2.1 = assay: Western blot of Kir2.1 in hiPSC-CMs with and without doxycycline induction; type: cell-based, human; conditions: hiPSC-CM, doxycycline present vs absent, 48 hours

`C[C@H]1c2cccc(O)c2C(=O)C2=C(O)[C@]3(O)C(=O)C(C(N)=O)=C(O)[C@@H](N(C)C)[C@@H]3[C@@H](O)[C@@H]21` [doxycycline] was tested, and the “Kir2.1/KCNJ2 expression of mRNA” value (Kir2.1/KCNJ2) was “significant increase” and the Kir2.1 protein expression (Kir2.1) was “robust expression”.
